The other results are listed elsewhere or left out. The calls rarely recur for the same compound in another form.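 In K562 cells expressing nanoluciferase-fused kinases, luminescence was recorded at 4 h intervals between 2 and 18 h, normalized as percent of control with DMSO at 100% and a positive control at 0%. A significant (2 sigma) signal drop marks a time point as decreased. The authors' rule for a hit is not shown and takes in more than the number of time points.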
Tests used:
Experiment in all cases: kinase-Nluc reporter destabilization hit call (1 = scored as downregulated) (binary); higher = compound decreases kinase abundance
Settings in all cases: K562; 2-18 h
[1] = target: RET (UniProt P07949)
[2] = target: RET_M918T (clone: RET_mut) (UniProt P07949)
[3] = target: RIOK1 (UniProt Q9BRS2)
[4] = target: RIPK1 (UniProt Q13546)
[5] = target: RIPK2 (UniProt O43353)
[6] = target: ROR2 (UniProt Q01974)
[7] = target: RPS6KA1 (UniProt Q15418)
[8] = target: SPHK1 (UniProt Q9NYA1)
[9] = target: SRC (UniProt P12931)
[10] = target: STK24 (UniProt Q9Y6E0)

Amino acid sequences for entries named in this document (tags omitted). A change or cut given only in a name is not applied to a line headed by its entry.
UniProt P07949, whole entry, looked up: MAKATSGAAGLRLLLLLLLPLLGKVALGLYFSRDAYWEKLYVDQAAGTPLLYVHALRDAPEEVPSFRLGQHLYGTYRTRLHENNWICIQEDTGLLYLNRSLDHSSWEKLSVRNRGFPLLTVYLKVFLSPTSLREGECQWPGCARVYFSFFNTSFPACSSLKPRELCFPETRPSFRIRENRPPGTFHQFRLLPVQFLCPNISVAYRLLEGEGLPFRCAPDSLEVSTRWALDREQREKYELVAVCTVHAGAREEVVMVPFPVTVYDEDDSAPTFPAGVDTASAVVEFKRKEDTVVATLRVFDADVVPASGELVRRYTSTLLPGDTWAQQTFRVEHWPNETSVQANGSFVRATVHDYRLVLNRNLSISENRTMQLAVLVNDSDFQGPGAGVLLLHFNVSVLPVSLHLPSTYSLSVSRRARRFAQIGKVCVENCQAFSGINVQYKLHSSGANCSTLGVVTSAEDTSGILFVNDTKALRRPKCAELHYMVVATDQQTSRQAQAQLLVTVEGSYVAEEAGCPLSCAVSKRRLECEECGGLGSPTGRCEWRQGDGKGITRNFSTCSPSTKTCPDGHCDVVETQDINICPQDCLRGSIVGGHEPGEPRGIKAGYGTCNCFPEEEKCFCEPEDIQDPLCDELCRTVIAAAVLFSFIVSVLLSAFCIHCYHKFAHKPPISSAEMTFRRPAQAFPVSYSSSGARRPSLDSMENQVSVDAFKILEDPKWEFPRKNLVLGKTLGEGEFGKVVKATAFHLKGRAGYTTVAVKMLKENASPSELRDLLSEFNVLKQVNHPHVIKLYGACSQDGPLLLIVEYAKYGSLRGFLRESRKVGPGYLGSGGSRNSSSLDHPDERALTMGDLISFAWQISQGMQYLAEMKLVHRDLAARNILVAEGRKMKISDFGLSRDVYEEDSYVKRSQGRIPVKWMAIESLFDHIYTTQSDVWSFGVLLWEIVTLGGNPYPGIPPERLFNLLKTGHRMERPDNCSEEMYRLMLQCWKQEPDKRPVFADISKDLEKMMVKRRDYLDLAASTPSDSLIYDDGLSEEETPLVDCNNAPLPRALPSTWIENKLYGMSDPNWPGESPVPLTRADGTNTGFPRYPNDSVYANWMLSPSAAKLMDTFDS
UniProt P07949, whole entry M918T, looked up: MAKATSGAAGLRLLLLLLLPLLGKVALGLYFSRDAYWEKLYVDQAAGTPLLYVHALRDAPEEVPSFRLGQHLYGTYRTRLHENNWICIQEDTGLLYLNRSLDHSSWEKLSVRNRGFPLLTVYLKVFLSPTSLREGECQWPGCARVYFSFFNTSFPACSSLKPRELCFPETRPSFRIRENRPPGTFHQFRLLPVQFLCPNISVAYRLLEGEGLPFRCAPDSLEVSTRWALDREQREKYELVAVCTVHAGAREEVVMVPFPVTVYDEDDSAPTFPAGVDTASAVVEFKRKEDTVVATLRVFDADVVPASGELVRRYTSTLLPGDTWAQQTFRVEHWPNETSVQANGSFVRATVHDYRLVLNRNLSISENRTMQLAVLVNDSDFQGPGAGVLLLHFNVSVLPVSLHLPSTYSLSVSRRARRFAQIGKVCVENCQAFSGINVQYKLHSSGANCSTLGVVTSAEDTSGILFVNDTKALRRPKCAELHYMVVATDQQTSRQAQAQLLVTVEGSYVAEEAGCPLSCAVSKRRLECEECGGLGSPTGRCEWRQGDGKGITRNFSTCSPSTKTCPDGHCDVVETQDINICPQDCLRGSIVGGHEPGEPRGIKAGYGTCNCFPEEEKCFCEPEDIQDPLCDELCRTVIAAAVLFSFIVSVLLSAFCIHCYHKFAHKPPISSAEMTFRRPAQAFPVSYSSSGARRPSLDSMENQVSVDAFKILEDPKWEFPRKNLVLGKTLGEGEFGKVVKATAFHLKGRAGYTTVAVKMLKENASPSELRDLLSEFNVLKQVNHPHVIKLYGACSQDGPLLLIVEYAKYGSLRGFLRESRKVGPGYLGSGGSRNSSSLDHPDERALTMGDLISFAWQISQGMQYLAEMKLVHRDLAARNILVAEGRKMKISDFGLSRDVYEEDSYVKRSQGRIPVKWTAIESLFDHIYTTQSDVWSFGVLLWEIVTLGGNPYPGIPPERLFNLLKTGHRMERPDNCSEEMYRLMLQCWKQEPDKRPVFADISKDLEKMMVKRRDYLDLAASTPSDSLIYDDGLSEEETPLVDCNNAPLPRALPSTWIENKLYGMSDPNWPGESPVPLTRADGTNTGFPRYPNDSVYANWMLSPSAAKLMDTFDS
UniProt Q9BRS2: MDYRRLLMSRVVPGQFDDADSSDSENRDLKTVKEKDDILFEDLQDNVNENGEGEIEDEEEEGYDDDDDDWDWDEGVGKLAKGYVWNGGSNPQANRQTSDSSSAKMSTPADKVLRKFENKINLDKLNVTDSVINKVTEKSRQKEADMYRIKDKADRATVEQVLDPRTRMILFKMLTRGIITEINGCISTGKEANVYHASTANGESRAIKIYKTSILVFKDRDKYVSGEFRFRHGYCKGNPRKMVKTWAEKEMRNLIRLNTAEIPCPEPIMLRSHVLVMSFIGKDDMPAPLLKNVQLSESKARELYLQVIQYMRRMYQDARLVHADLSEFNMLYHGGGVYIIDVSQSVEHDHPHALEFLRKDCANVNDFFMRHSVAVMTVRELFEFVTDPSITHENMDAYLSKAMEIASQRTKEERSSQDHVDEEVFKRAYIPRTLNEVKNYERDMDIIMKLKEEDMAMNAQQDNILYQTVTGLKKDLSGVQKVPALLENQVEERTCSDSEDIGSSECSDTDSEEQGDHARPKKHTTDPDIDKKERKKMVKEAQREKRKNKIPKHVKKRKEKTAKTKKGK
UniProt Q13546: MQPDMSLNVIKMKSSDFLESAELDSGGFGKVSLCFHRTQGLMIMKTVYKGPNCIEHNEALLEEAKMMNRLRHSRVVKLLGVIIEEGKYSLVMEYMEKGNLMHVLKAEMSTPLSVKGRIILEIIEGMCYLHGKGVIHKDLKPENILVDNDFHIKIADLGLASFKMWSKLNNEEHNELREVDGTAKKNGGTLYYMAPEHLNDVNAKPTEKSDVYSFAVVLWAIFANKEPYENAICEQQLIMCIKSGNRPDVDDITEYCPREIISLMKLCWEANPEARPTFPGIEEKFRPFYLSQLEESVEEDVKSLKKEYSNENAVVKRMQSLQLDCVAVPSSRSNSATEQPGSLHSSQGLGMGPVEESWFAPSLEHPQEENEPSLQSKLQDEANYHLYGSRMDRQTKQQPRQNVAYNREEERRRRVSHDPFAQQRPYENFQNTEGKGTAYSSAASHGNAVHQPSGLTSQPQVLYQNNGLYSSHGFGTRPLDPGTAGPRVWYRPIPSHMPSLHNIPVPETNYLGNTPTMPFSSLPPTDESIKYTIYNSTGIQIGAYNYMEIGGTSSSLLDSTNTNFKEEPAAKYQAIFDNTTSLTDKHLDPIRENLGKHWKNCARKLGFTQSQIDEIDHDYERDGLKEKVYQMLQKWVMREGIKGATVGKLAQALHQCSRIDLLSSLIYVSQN
UniProt Q01974, whole entry: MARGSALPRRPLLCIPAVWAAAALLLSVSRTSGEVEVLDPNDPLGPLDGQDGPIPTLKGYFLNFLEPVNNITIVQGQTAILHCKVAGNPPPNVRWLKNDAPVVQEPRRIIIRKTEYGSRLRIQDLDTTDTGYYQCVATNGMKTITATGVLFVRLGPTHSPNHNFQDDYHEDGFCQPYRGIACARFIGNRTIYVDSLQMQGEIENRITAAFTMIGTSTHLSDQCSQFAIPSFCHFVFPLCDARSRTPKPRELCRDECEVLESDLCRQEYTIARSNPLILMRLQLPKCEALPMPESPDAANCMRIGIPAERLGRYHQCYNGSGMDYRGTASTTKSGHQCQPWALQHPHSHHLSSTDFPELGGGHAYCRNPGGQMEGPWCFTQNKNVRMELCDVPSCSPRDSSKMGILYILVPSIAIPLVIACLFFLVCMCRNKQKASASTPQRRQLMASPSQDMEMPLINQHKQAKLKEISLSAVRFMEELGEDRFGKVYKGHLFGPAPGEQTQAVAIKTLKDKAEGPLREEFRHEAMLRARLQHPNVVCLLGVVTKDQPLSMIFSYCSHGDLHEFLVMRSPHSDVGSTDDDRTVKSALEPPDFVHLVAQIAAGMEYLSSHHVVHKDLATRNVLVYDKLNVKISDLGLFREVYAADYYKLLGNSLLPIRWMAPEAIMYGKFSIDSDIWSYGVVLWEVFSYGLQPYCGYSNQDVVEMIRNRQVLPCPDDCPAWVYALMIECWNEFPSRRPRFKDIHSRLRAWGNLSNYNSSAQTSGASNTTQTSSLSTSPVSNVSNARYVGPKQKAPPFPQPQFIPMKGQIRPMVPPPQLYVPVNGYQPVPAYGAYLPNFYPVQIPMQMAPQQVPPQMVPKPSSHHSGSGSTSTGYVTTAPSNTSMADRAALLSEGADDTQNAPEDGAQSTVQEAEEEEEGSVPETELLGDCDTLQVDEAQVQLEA
UniProt Q15418, whole entry: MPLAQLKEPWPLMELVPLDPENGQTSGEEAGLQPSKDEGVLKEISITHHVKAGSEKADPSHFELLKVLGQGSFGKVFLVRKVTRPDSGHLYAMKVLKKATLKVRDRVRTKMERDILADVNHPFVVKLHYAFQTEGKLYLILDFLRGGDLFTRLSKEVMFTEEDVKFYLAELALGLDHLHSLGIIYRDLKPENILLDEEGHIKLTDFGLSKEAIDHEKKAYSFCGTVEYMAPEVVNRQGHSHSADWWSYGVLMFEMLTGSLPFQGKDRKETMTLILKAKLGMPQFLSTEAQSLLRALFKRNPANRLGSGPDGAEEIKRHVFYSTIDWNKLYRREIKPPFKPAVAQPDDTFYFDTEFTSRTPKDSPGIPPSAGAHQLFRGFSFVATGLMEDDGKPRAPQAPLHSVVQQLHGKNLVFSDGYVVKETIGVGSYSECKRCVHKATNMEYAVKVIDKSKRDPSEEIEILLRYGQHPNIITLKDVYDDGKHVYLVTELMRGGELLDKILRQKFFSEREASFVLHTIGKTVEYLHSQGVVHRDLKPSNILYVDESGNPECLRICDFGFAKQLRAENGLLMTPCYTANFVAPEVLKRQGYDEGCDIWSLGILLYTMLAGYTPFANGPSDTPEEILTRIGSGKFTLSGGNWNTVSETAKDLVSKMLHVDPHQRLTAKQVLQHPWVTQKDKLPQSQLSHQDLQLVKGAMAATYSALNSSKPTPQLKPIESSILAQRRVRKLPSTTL
UniProt Q9NYA1, whole entry: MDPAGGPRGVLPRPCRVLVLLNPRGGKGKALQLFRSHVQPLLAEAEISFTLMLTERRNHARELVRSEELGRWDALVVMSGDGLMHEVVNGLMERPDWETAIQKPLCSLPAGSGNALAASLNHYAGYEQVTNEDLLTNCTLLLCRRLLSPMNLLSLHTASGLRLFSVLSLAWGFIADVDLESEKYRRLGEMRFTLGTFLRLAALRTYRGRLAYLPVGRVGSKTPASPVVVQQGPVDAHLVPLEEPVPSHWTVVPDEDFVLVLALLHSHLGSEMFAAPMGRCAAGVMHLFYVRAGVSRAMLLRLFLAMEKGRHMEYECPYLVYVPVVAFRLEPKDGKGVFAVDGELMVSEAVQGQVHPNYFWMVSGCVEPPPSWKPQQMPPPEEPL
UniProt Q9Y6E0: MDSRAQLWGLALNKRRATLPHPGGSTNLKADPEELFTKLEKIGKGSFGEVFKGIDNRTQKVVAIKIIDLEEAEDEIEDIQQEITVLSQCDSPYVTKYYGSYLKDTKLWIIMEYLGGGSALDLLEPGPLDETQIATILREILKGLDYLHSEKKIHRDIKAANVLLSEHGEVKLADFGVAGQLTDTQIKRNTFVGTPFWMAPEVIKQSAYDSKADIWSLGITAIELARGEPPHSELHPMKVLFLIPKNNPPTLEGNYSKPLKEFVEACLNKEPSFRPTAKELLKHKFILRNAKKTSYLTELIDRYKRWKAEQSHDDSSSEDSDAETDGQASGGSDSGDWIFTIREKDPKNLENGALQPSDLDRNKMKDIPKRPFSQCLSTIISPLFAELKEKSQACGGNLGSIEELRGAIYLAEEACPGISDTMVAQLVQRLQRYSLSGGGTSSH

Measured: kinase-Nluc reporter destabilization hit call

Clc1ccc(Nc2cccc(-c3cn[nH]c3)c2)cc1 (10 µM)
inactive: [1] 0 | [2] 0 | [3] 0 | [4] 0 | [5] 0 | [6] 0 | [7] 0 | [8] 0 | [9] 0 | [10] 0

O=S(=O)(N=Cc1c(O)ccc2ccccc12)c1cccs1 (10 µM)
inactive: [1] 0 | [2] 0 | [3] 0 | [4] 0 | [5] 0 | [6] 0 | [7] 0 | [8] 0 | [9] 0 | [10] 0

Cc1cccc(-c2[nH]c(C(C)(C)C)nc2-c2ccc3c(c2)OCO3)n1 (2.5 µM)
inactive: [1] 0 | [2] 0 | [3] 0 | [4] 0 | [5] 0 | [6] 0 | [7] 0 | [8] 0 | [9] 0 | [10] 0

CC(=O)c1cc(O)ccc1O [2,5-Dihydroxyacetophenone] (10 µM)
inactive: [1] 0 | [2] 0 | [3] 0 | [4] 0 | [5] 0 | [6] 0 | [7] 0 | [8] 0 | [9] 0 | [10] 0

O=C(Nc1nccs1)C(c1cc(F)ccc1O)N1Cc2ccc(-c3ccc(N4CCNCC4)cc3)cc2C1=O (racemic) (10 µM)
inactive: [1] 0 | [2] 0 | [3] 0 | [4] 0 | [5] 0 | [6] 0 | [7] 0 | [8] 0 | [9] 0 | [10] 0

C[C@@H]1CC[C@]2(C(=O)O)CC[C@]3(C)C(=CC[C@@H]4[C@@]5(C)CC[C@H](O)[C@@](C)(CO)[C@@H]5CC[C@]43C)[C@@H]2[C@]1(C)O [Rotundic acid] (10 µM)
inactive: [1] 0 | [2] 0 | [3] 0 | [4] 0 | [5] 0 | [6] 0 | [7] 0 | [8] 0 | [9] 0 | [10] 0

O=C(O)[C@]1(Cc2cccc(Nc3nccs3)n2)CC[C@@H](Oc2cccc(Cl)c2F)CC1 (2.5 µM)
inactive: [1] 0 | [2] 0 | [3] 0 | [4] 0 | [5] 0 | [6] 0 | [7] 0 | [8] 0 | [9] 0 | [10] 0

Cc1cc(Nc2ncc(Cl)c(Nc3ccccc3S(=O)(=O)C(C)C)n2)c(OC(C)C)cc1C1CCN(CC(=O)NCCNc2cccc3c2C(=O)N(C2CCC(=O)NC2=O)C3=O)CC1 (stereo not given) (10 µM)
inactive: [1] 0 | [2] 0 | [3] 0 | [4] 0 | [5] 0 | [6] 0 | [7] 0 | [8] 0 | [9] 0 | [10] 0

Cn1cc(-c2ccc3ncc(Cc4ccc5ncccc5c4)n3n2)cn1 (10 µM)
inactive: [1] 0 | [2] 0 | [3] 0 | [4] 0 | [5] 0 | [6] 0 | [7] 0 | [8] 0 | [9] 0 | [10] 0

CC(C)Cn1cc(C#N)c2cc(Oc3ccc(NC(=O)[C@@H]4CCCN4)cc3)ccc21 (10 µM)
inactive: [1] 0 | [2] 0 | [3] 0 | [4] 0 | [5] 0 | [6] 0 | [7] 0 | [8] 0 | [9] 0 | [10] 0

COc1ccc(F)cc1C(=O)NCc1ccc(-c2nn([C@@H](C)C(F)(F)F)c(N)c2C(N)=O)cc1 [Pirtobrutinib] (10 µM)
inactive: [1] 0 | [2] 0 | [3] 0 | [4] 0 | [5] 0 | [6] 0 | [7] 0 | [8] 0 | [9] 0 | [10] 0

Cc1ncc(F)c(Nc2n[nH]c3c2CN(C(=O)N2C[C@@H](C)N(CC4CCOCC4)C[C@@H]2C)C3(C)C)n1 (10 µM)
inactive: [1] 0 | [2] 0 | [3] 0 | [4] 0 | [5] 0 | [6] 0 | [7] 0 | [8] 0 | [9] 0 | [10] 0

C[C@@]12CCc3occc3[C@H]1CC[C@@]13C[C@@H](CC[C@H]12)[C@@](O)(CO)C3 [Cafestol] (10 µM)
inactive: [1] 0 | [2] 0 | [3] 0 | [4] 0 | [5] 0 | [6] 0 | [7] 0 | [8] 0 | [9] 0 | [10] 0

CN(C/C=C/C(=O)Nc1ccc(C(=O)Nc2cccc(Nc3ncc(Cl)c(-c4c[nH]c5ccccc45)n3)c2)cc1)CCCNC(=O)NCCOCCOCCOCCNC(=O)CCCC[C@@H]1SC[C@@H]2NC(=O)N[C@@H]21 (2.5 µM)
inactive: [1] 0 | [2] 0 | [3] 0 | [4] 0 | [5] 0 | [6] 0 | [7] 0 | [8] 0 | [9] 0 | [10] 0

CC[C@H](C)[C@H](NC(=O)[C@H](CCCCN)NC(=O)[C@H](CC(C)C)NC(=O)[C@@H]1CCCN1C(=O)[C@H](CCC(=O)O)NC(=O)[C@H](Cc1ccc(O)cc1)NC(=O)[C@@H](NC(=O)[C@H](CO)NC(=O)CNC(=O)[C@H](CO)NC(=O)[C@H](CCCN=C(N)N)NC(=O)[C@H](CCCCN)NC(=O)[C@@H](NC(=O)[C@@H](N)CCCN=C(N)N)[C@@H](C)O)C(C)C)C(=O)O [Malantide] (10 µM)
inactive: [1] 0 | [2] 0 | [3] 0 | [4] 0 | [5] 0 | [6] 0 | [7] 0 | [8] 0 | [9] 0 | [10] 0

Structural class, those above containing a COOH group
C[C@@H]1CC[C@]2(C(=O)O)CC[C@]3(C)C(=CC[C@@H]4[C@@]5(C)CC[C@H](O)[C@@](C)(CO)[C@@H]5CC[C@]43C)[C@@H]2[C@]1(C)O [Rotundic acid] (10 µM)
inactive: [1] 0 | [2] 0 | [3] 0 | [4] 0 | [5] 0 | [6] 0 | [7] 0 | [8] 0 | [9] 0 | [10] 0

O=C(O)[C@]1(Cc2cccc(Nc3nccs3)n2)CC[C@@H](Oc2cccc(Cl)c2F)CC1 (2.5 µM)
inactive: [1] 0 | [2] 0 | [3] 0 | [4] 0 | [5] 0 | [6] 0 | [7] 0 | [8] 0 | [9] 0 | [10] 0

CC[C@H](C)[C@H](NC(=O)[C@H](CCCCN)NC(=O)[C@H](CC(C)C)NC(=O)[C@@H]1CCCN1C(=O)[C@H](CCC(=O)O)NC(=O)[C@H](Cc1ccc(O)cc1)NC(=O)[C@@H](NC(=O)[C@H](CO)NC(=O)CNC(=O)[C@H](CO)NC(=O)[C@H](CCCN=C(N)N)NC(=O)[C@H](CCCCN)NC(=O)[C@@H](NC(=O)[C@@H](N)CCCN=C(N)N)[C@@H](C)O)C(C)C)C(=O)O [Malantide] (10 µM)
inactive: [1] 0 | [2] 0 | [3] 0 | [4] 0 | [5] 0 | [6] 0 | [7] 0 | [8] 0 | [9] 0 | [10] 0

Next records

O=c1cc(-c2ccc(O)cc2)oc2cc(O)c([C@@H]3O[C@H](CO)[C@@H](O)[C@H](O)[C@H]3O)c(O)c12 [Isovitexin] (10 µM)
inactive: [1] 0 | [2] 0 | [3] 0 | [4] 0 | [5] 0 | [6] 0 | [7] 0 | [8] 0 | [9] 0 | [10] 0

CC(C)=CCC/C(C)=C/CC/C(C)=C/CSc1ccccc1C(=O)O [Salirasib] (10 µM)
inactive: [1] 0 | [2] 0 | [3] 0 | [4] 0 | [5] 0 | [6] 0 | [7] 0 | [8] 0 | [9] 0 | [10] 0

CC1=C(C(=O)Nc2ccc3[nH]ncc3c2)C(c2ccc(F)c(C(=O)NCc3ccccn3)c2)NC(=O)N1 (stereo not given) (10 µM)
inactive: [1] 0 | [2] 0 | [3] 0 | [4] 0 | [5] 0 | [6] 0 | [7] 0 | [8] 0 | [9] 0 | [10] 0

C=CC(=O)N1CCC[C@@H](n2c(=O)n(-c3ccc(Oc4ccccc4)cc3)c3c(N)nccc32)C1 [Tolebrutinib] (10 µM)
inactive: [1] 0 | [2] 0 | [3] 0 | [4] 0 | [5] 0 | [6] 0 | [7] 0 | [8] 0 | [9] 0 | [10] 0

COc1ncc2cc(C(=O)Nc3cc(C(=O)NCc4cccc(Cl)c4)ccc3Cl)c(=O)[nH]c2n1 (2.5 µM)
inactive: [1] 0 | [2] 0 | [3] 0 | [4] 0 | [5] 0 | [6] 0 | [7] 0 | [8] 0 | [9] 0 | [10] 0

CCCC[C@H](CO)Nc1nc(NC)ncc1OC [Interferon receptor inducer-1] (10 µM)
inactive: [1] 0 | [2] 0 | [3] 0 | [4] 0 | [5] 0 | [6] 0 | [7] 0 | [8] 0 | [9] 0 | [10] 0

Cc1occ2c1C(=O)c1c(O)ccc(O)c1C2 (2.5 µM)
inactive: [1] 0 | [2] 0 | [3] 0 | [4] 0 | [5] 0 | [6] 0 | [7] 0 | [8] 0 | [9] 0 | [10] 0

O=C(Nc1ncc(SCCN2CCCC2)s1)[C@]1(c2ccc(S(=O)(=O)C3CC3)cc2)C[C@H]1C1CCCCC1 [Globalagliatin] (2.5 µM)
inactive: [1] 0 | [2] 0 | [3] 0 | [4] 0 | [5] 0 | [6] 0 | [7] 0 | [8] 0 | [9] 0 | [10] 0

Cc1cc(/C=C2\CC/C(=C\c3cc(C)c(O)c(C)c3)C2=O)cc(C)c1O [Pentagamavunon-1] (2.5 µM)
inactive: [1] 0 | [2] 0 | [3] 0 | [4] 0 | [5] 0 | [6] 0 | [7] 0 | [8] 0 | [9] 0 | [10] 0

COc1ccc(-c2cnc3c(-c4cccc5ncccc45)cnn3c2)cc1 (10 µM)
inactive: [1] 0 | [2] 0 | [3] 0 | [4] 0 | [5] 0 | [6] 0 | [7] 0 | [8] 0 | [9] 0 | [10] 0

O=c1cc(-c2ccc(O)cc2)oc2cc(O)c(O)c(O)c12 [Scutellarein] (10 µM)
inactive: [1] 0 | [2] 0 | [3] 0 | [4] 0 | [5] 0 | [6] 0 | [7] 0 | [8] 0 | [9] 0 | [10] 0

O=c1sn(-c2cccc3ccccc23)c(=O)n1Cc1ccccc1 [Tideglusib] (10 µM)
inactive: [1] 0 | [2] 0 | [3] 0 | [4] 0 | [5] 0 | [6] 0 | [7] 0 | [8] 0 | [9] 0 | [10] 0

CN1CCN(c2ccc(NC(=O)c3ccc(C#N)o3)c(N3CCCCC3)c2)CC1 (10 µM)
inactive: [1] 0 | [2] 0 | [3] 0 | [4] 0 | [5] 0 | [6] 0 | [7] 0 | [8] 0 | [9] 0 | [10] 0

Cc1ccc(Nc2c(C(N)=O)cnc3cc(-c4ccncc4)ccc23)cc1C [cFMS Receptor Inhibitor II] (10 µM)
inactive: [1] 0 | [2] 0 | [3] 0 | [4] 0 | [5] 0 | [6] 0 | [7] 0 | [8] 0 | [9] 0 | [10] 0

CC(=O)NCC(=O)N[C@@H](C)C(=O)N[C@@H](CCC(N)=O)C(=O)N[C@@H](Cc1ccccc1)C(=O)N[C@@H](CO)C(=O)N[C@@H](CCCCN)C(=O)N[C@H](C(=O)N[C@@H](C)C(=O)N[C@@H](C)C(=O)N[C@@H](CCCCN)C(=O)O)[C@@H](C)O (10 µM)
inactive: [1] 0 | [2] 0 | [3] 0 | [4] 0 | [5] 0 | [6] 0 | [7] 0 | [8] 0 | [9] 0 | [10] 0

COc1cc(Nc2nc3ccccc3nc2NS(=O)(=O)c2ccc(NC(=O)c3ccc(C)c(OC)c3)cc2)cc(OC)c1 (10 µM)
inactive: [1] 0 | [2] 0 | [3] 0 | [4] 0 | [5] 0 | [6] 0 | [7] 0 | [8] 0 | [9] 0 | [10] 0

C[C@@H](N)COc1ccc(-c2cnc3ccc(N[C@H](C)c4cccc(F)c4)nn23)cc1 [Taletrectinib] (2.5 µM)
inactive: [1] 0 | [2] 0 | [3] 0 | [4] 0 | [5] 0 | [6] 0 | [7] 0 | [8] 0 | [9] 0 | [10] 0

N#Cc1cn([C@@H]2O[C@H](CO)[C@@H](O)[C@H]2O)c2nc[nH]c(=O)c12 [Jaspamycin] (10 µM)
inactive: [1] 0 | [2] 0 | [3] 0 | [4] 0 | [5] 0 | [6] 0 | [7] 0 | [8] 0 | [9] 0 | [10] 0

O=C1c2c(O)cc(O)cc2O[C@H](c2cc(O)c(O)c(O)c2)[C@H]1O [Dihydromyricetin] (10 µM)
inactive: [1] 0 | [2] 0 | [3] 0 | [4] 0 | [5] 0 | [6] 0 | [7] 0 | [8] 0 | [9] 0 | [10] 0

COc1cc(OC)c(/C=C/S(=O)(=O)Cc2ccc(OC)c(NCC(=O)O)c2)c(OC)c1 [Rigosertib (sodium)] (10 µM)
inactive: [1] 0 | [2] 0 | [3] 0 | [4] 0 | [5] 0 | [6] 0 | [7] 0 | [8] 0 | [9] 0 | [10] 0

O=C(NCc1cccc(O)c1)c1cc2cc(F)ccc2[nH]1 (10 µM)
inactive: [1] 0 | [2] 0 | [3] 0 | [4] 0 | [5] 0 | [6] 0 | [7] 0 | [8] 0 | [9] 0 | [10] 0

Source: the supplement of paper PMC12823440, “Inhibitors supercharge kinase turnover through native proteolytic circuits” (Nature, 2025)
